Data as given in patent US20230114753A1, “USE OF A GROUP OF MARKERS FOR DIAGNOSING AND ADJUSTING TREATMENT OF PRIMARY BILIARY CHOLANGITIS, PHARMACEUTICAL COMPOSITION AND SOLID DOSAGE FORM FOR TREATING PRIMARY BILIARY CHOLANGITIS” (MILI HEALTHCARE TRADE DMCC, LIMITED LIABILITY COMPANY, priority 2020, published 2023).
At least one compound was matched to its structure with a doubt left.

Columns and labels:
[1] = Dissolution of the claimed solid dosage form (release of OCA and UDCA); assay type: physicochemical
[2] = target: T1, nuclear farnesoid X receptor FXR (Homo sapiens, UniProt Q96RI1); details: cited from earlier work
T1 sequence (Q96RI1 1-486): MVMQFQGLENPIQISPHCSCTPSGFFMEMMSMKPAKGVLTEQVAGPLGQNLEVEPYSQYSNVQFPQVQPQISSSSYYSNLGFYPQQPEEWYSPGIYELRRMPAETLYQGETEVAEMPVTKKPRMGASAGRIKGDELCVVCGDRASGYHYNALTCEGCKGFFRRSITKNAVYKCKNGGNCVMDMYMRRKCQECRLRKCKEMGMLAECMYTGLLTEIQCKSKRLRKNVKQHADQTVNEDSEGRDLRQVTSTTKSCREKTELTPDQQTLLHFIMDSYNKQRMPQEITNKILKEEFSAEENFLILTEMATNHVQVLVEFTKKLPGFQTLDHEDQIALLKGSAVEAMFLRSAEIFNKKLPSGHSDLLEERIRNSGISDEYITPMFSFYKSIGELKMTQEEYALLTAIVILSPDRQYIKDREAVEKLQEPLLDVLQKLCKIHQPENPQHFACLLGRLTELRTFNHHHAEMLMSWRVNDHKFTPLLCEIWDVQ

[3] = test system: patients diagnosed with PBC; test: Double-blind clinical study: biochemical and molecular markers in blood of PBC patients treated with UDCA or UDCA+OCA; assay type: in vivo, human; details: for effect on markers of inflammation, apoptosis and lipid peroxidation (in words): conclusion from the clinical study
Procedure: To determine the concentration level values of the markers in the blood serum, chemiluminescence and enzyme immunoassay methods were used.
A double-blind clinical study was conducted on the effectiveness of the combined pharmaceutical composition comprising UDCA and OCA compared with the monocomposition comprising only UDCA for the patients with the following concentration level values of the claimed group of the markers (corresponding to 1 Stage of PBC): • IL-6—at least 10%; • Nf-kB—at least 5%; • MCP-1/CCL2—at least 5%; • Bcl-2—at least 5%; • TNF-α—at least 12%; • MDA—at least 0.5%.
The patients diagnosed with PBC were divided into 3 groups depending on the treatment regimen:
2) Group UDCA 15 mg/kg+OCA 5 mg;
3) Group UDCA 15 mg/kg+OCA 10 mg.
After the treatment, venous blood samples were taken from the patients and the concentrations of biochemical and molecular markers were determined.
As markers of the treatment effectiveness, two groups of markers were used: biochemical and molecular biological.
The first group included: ALT, AST, GGT (Gamma-glutamyl Transferase), AP and total bilirubin.
The second group included: TNF-α, IL-6, Nf-kB, MCP-1/CCL2, BCL-2, and MDA.

patients with PBC = details: according to statistics; cited from earlier work

| Structure (SMILES) | Percent Drug released ([1]; 15 min) | Percent Drug released ([1]; 30 min) | Percent Drug released ([1]; 45 min) | Percent Drug released ([1]; 60 min) | Percent Drug released ([1]; 120 min) | Percent Drug released ([1]; 240 min) | Percent Drug released ([1]; 300 min) | affinity to FXR relative to chenodeoxycholic acid (times higher) [2] | effectiveness of the treatment regimen (in words) ([3]; conclusion from biochemical and molecular markers over 12 months) | effect on markers of inflammation, apoptosis and lipid peroxidation (in words) [3] | effect on markers of inflammation, apoptosis and lipid peroxidation (in words) ([3]; listed as UDCA monocomposition) | effect on markers of inflammation, apoptosis and lipid peroxidation (in words) ([3]; listed as treatment regimen No. 1) | patients for whom the treatment of PBC is successful (patients with PBC) |
| --- | --- | --- | --- | --- | --- | --- | --- | --- | --- | --- | --- | --- | --- |
| CC[C@H]1[C@@H](O)[C@@H]2[C@H](CC[C@]3(C)[C@@H]([C@H](C)CCC(=O)O)CC[C@@H]23)[C@@]2(C)CC[C@@H](O)C[C@@H]12 [OCA, obeticholic acid] | 52% | 65% | 75% | 99% | 100% | 100% | 100% | 100 times | – | – | – | – | – |
| C[C@H](CCC(=O)O)[C@H]1CC[C@H]2[C@@H]3[C@@H](O)C[C@@H]4C[C@H](O)CC[C@]4(C)[C@H]3CC[C@]12C [UDCA, ursodeoxycholic acid] | 0% | 0% | 0% | 0% | 23% | 48% | 99% | – | somewhat effective | insignificant | almost no effect | little effect | 60% |
